The data set can be described thus: Box plots of biomarker level in plasma, PD vs control. The arrangement: species or system human. The note with it: all subjects, male subjects only and female subjects only.

As for `CCCCC(=O)C(=O)O` [2-ketohexanoic acid], the “Biomarker level in PD vs. control samples” value is listed as “decreased”.
In the case of `CC(=O)NCCCCN` [NAP, N-acetyl putrescine] it was “increased”.

For the origin of these results see patent publication US20250079000A1, “METHODS AND MARKERS FOR DIAGNOSIS OF PARKINSON'S DISEASE” (Berg LLC, priority 2021, published 2025).
